In PubChem BioAssay AID2685 (National Center for Advancing Translational Sciences (NCATS), 2010):
The list shows a part of the results. Further columns of the screen follow, without active or inactive calls. Most of these compounds were active or inconclusive in the main read-out, so they are no random draw. Potencies come from curve fits of mixed quality, noted in brackets.

Test: qHTS Assay for Lipid Storage Modulators in Drosophila S3 Cells;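 as to cell number change: cells counted by Cell Tracker Red CMTPX staining in the red channel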
Conditions: BODIPY lipid droplet fluorescence, 18-24 h; for cell number change: measured here: cell count max response, cells fed with added oleic acid
In short: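 Drosophila S3 cells got compounds at several concentrations plus oleic acid (400 uM solution). Laser-scanning cytometry with 488 nm excitation read lipid droplets at 500-530 nm and cells at 575-640 nm. Percent activity was relative to 20 uM Triacsin C.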

[1] = measured here: lipid fluorescence (Fed channel) AC50, cells fed with added oleic acid
[2] = measured here: cell number channel AC50, cells fed with added oleic acid

CSc1ccccc1OCc1cc(C(=O)N2CCN3CCCC3C2)no1 (stereo unspecified)
cell number change: -17.9%

Cc1cc2oc(=O)cc(CN(C)Cc3cccc(F)c3)c2cc1C
cell number change: 19.4%

O=C(CSc1ccccc1)NCC(c1ccco1)N1CCCCC1 (stereo unspecified)
cell number change: -16.3%
AC50 [1]: 18.4 µM [rising, single point]

CCOC(=O)c1c(NC(=O)c2ccccc2C)sc2c1CC(C)(C)OC2
AC50 [1]: 29.1 µM [rising, single point]

Cc1ccc(C)c(NC(=O)NCCN2CCCCC2)c1
cell number change: -19.8%
AC50 [1]: 0.411 µM [falling, partial curve, poor fit]

CCCCN(C(=O)c1cc(-c2ccc(F)cc2)nc2ccccc12)c1c(N)n(CCCC)c(=O)[nH]c1=O
cell number change: -48.9%
AC50 [2]: 9.2 µM [falling, partial curve]
AC50 [1]: 2.31 µM [falling, partial curve, poor fit]

CCOC(=O)c1c(C)[nH]c(C)c1C(=O)CSc1nc2ccccc2c(=O)n1-c1ccc(Cl)cc1
cell number change: 6.74%
AC50 [1]: 29.1 µM [rising, single point]

Cc1nc(Nc2ccccc2)sc1C(=O)c1ccc(F)cc1
cell number change: -53.1%
AC50 [2]: 16.4 µM [falling, partial curve]
AC50 [1]: 20.6 µM [falling, partial curve]

COc1cc2[nH]c(=S)n(Cc3ccc(F)cc3)c(=O)c2cc1OC
cell number change: 30.2%
AC50 [2]: 18.4 µM [rising, single point]
AC50 [1]: 16.4 µM [rising, partial curve]

Cn1ncc(N2CCN(S(=O)(=O)c3ccc(Br)cc3)CC2)c(Cl)c1=O
cell number change: 2.37%
AC50 [1]: 1.16 µM [falling, full curve]

CC(=O)N[C@@H](Cc1c[nH]c2ccccc12)C(=O)OCC(=O)NCc1ccc2c(c1)OCO2
cell number change: -0.122%
AC50 [1]: 0.517 µM [rising, full curve, poor fit]

COc1cc(CC(=O)Nc2ccccc2N2CCOCC2)cc(OC)c1OC
cell number change: -2.84%
AC50 [1]: 0.58 µM [rising, single point]

COc1ccc(-c2ccc(C#N)c(OC(=O)c3c(Cl)cccc3Cl)n2)cc1
cell number change: -11.5%
AC50 [1]: 18.4 µM [rising, single point]

CCOc1ccc(Cn2c(=O)oc3ccc(C)cc32)cc1OC
cell number change: 65.1%
AC50 [2]: 20.6 µM [rising, single point]

O=C(NC(=S)NCc1ccccc1)c1ccccc1
AC50 [2]: 3.66 µM [rising, single point]
AC50 [1]: 4.11 µM [rising, single point]

CS(=O)(=O)Cc1cccc(C(=O)NC2CCSc3ccccc32)c1 (stereo unspecified)
cell number change: 3.78%
AC50 [1]: 6.51 µM [rising, partial curve, poor fit]

N#C/C(=C\c1c(N2CCOCC2)nc2ccccn2c1=O)S(=O)(=O)c1ccccc1
cell number change: 25.4%

Cc1c(N=C2C=CC(=O)c3ccccc32)c(=O)n(-c2ccccc2)n1C
cell number change: -60.2%
AC50 [2]: 14.6 µM [falling, partial curve]
AC50 [1]: 20.6 µM [falling, single point]

NC(=O)c1nc[nH]c1C(=O)Nc1cccc(C(F)(F)F)c1
cell number change: 5.17%

CCCCNC(=O)CN1C(=O)NC2NC(=O)NC21 (stereo unspecified)
cell number change: -47.6%
AC50 [2]: 1.03 µM [falling, full curve, poor fit]
AC50 [1]: 1.16 µM [falling, full curve]

CCc1c(O)c(/C(C)=N\O)c(=O)n(-c2ccccc2)c1-c1ccccc1
cell number change: 32%
AC50 [2]: 29.1 µM [rising, single point]
AC50 [1]: 29.1 µM [rising, single point]

O=C1NC(=S)S/C1=C\c1ccc(SCc2ccco2)o1
AC50 [1]: 4.11 µM [falling, full curve, poor fit]

O=C(O)c1cc(S(=O)(=O)NC(CO)C(O)c2ccc([N+](=O)[O-])cc2)ccc1Br (stereo unspecified)
cell number change: -15.2%

COc1ccc(-c2nc(N)ncc2-c2ccc(OC)c(OC)c2)c(O)c1
cell number change: 30.5%
AC50 [2]: 32.6 µM [rising, single point]

CCOC(=O)c1c(NC(=O)COc2ncnc3ccccc23)sc(C(C)=O)c1C
cell number change: 13.4%
AC50 [1]: 2.06 µM [rising, partial curve]

CCCCn1c(N)c(N(CCC(C)C)C(=O)c2ccc3ccccc3c2)c(=O)[nH]c1=O
cell number change: -16.6%

Cc1cc(NC(=O)c2ccco2)sc1C
cell number change: 23.4%
AC50 [1]: 29.1 µM [rising, single point]

CC1CN(CCS(=O)(=O)c2cc(Cl)ccc2Cl)CC(C)O1 (stereo unspecified)
cell number change: 12.2%

O=C(NNC1CC(=O)N(c2ccccc2)C1=O)c1ccc(COc2ccccc2Cl)o1 (stereo unspecified)
cell number change: -16.7%
AC50 [1]: 29.1 µM [rising, single point]

CCCCN1C(=O)C(=O)N(CC(=O)N2CCN(c3ccccc3)CC2)C1=O
cell number change: -28.5%
AC50 [2]: 0.0103 µM [falling, full curve, poor fit]

COc1ccccc1CNC(=O)C(Cc1c[nH]c2ccccc12)NC(=O)OCc1ccccc1 (stereo unspecified)
cell number change: 6.96%

COc1cccc(Cn2c(Oc3cccc(C)c3)nc3c2c(=O)n(C)c(=O)n3C)c1
cell number change: -18.3%
AC50 [1]: 0.731 µM [rising, partial curve]

CC(C)(C)n1cnc2cc(NS(=O)(=O)c3ccc(Br)cc3)ccc21
cell number change: 78.9%
AC50 [2]: 2.59 µM [rising, full curve]
AC50 [1]: 2.59 µM [rising, full curve]

COc1ccccc1C(=O)Nc1nnc(S(=O)(=O)N2CCN(c3ccc(F)cc3)CC2)s1
cell number change: -10.1%
AC50 [1]: 18.4 µM [rising, partial curve]

CS(=O)(=O)N1CCN(c2ccccc2F)CC1
AC50 [2]: 0.731 µM [falling, partial curve, poor fit]
AC50 [1]: 11.6 µM [falling, partial curve]

CCOc1cc(/C=N/NC(N)=O)cc(Br)c1OCC(=O)Nc1ccccc1C
cell number change: 47.2%
AC50 [2]: 10.3 µM [rising, single point]
AC50 [1]: 5.17 µM [rising, full curve]

Cc1ccc(-c2cc(-c3ccc(Cl)cc3)c(C#N)c(N)n2)o1
cell number change: -33.9%
AC50 [2]: 18.4 µM [falling, single point]

CCOC(=O)N1CCN(CCC(=O)Nc2ccc(OC)cc2)CC1
cell number change: -8.86%
AC50 [1]: 0.411 µM [falling, partial curve, poor fit]

COc1ccc(NS(=O)(=O)c2cccc(C(=O)NNC(=O)c3cncc(Br)c3)c2)cc1
cell number change: 31%
AC50 [2]: 32.6 µM [rising, single point]

CC(=O)Oc1ccc(NC(=O)Cc2ccccc2)c(C(=O)O)c1
cell number change: -30.1%
AC50 [2]: 2.24 µM [falling, full curve, poor fit]
AC50 [1]: 7.94 µM [falling, partial curve]

CCOc1ccc(N(Cc2cc3ccc(C)cc3[nH]c2=O)C(=O)COC)cc1
cell number change: -29.3%
AC50 [1]: 0.731 µM [falling, single point]

CC(C)(C)c1ccc(C(=O)NCC(=O)OCC(=O)c2ccc3c(c2)-c2ccccc2C3)cc1
cell number change: -10.1%
AC50 [1]: 0.92 µM [falling, full curve, poor fit]

Cc1cc(Br)c(NC(=O)CCNC(=O)OCc2ccccc2)cc1C
cell number change: -18.6%
AC50 [1]: 3.66 µM [falling, full curve, poor fit]

CC(=O)c1cccc(NC(=O)c2oc(C)nc2C)c1
cell number change: -28.2%
AC50 [1]: 29.1 µM [falling, single point]

NNC(=O)C(Cc1cnc[nH]1)NC(=O)OCc1ccccc1 (stereo unspecified)
cell number change: 19.7%
AC50 [1]: 29.1 µM [rising, single point]

COC(=O)c1ccc2c(=O)n(CCCCCC(=O)NCc3ccccn3)c(=O)[nH]c2c1
cell number change: 136%
AC50 [2]: 29.1 µM [rising, single point]
AC50 [1]: 0.116 µM [rising, full curve]

CCn1c(O)c(N=NC(=O)C2C(=O)NCC2c2ccccc2)c2ccccc21 (stereo unspecified)
cell number change: 7.82%
AC50 [1]: 0.58 µM [rising, full curve, poor fit]

COc1ccc(N2CC(C(=O)NCCC3=CCCCC3)CC2=O)cc1 (stereo unspecified)
cell number change: -0.437%
AC50 [1]: 6.51 µM [falling, single point]

c1ccc(CSc2nnnn2-c2ccccc2)cc1
cell number change: 128%
AC50 [1]: 0.58 µM [falling, single point]

COc1ccc(N2CCN(C(=O)c3c(-c4c(F)cccc4Cl)noc3C)CC2)cc1
cell number change: 9.12%

Cc1ccc(C)c(Cc2c(C)nc(C)[nH]c2=O)c1
cell number change: -0.47%
AC50 [1]: 2.59 µM [rising, single point]

CCN1C(=O)/C(=C2\C=Cc3ccccc3N2CC)SC1=S
cell number change: -57.2%
AC50 [2]: 2.59 µM [falling, partial curve, poor fit]

O=C(O)c1ccc(-c2sc(Nc3ccccc3)n[n+]2-c2ccc(F)cc2)cc1
AC50 [1]: 29.1 µM [rising, single point]

COc1ccc(N2CCN(C(=O)Cc3cccs3)CC2)cc1
cell number change: 30.6%
AC50 [2]: 29.1 µM [rising, single point]

CCC(NC(=O)Nc1nnc(C(F)(F)F)s1)(C(F)(F)F)C(F)(F)F
AC50 [1]: 5.8 µM [falling, single point]

COc1cccc(/C=N/Nc2nc(Nc3ccc([N+](=O)[O-])cc3)nc(N3CCCC3)n2)c1O
cell number change: -44.7%
AC50 [2]: 29.1 µM [falling, single point]

CCN(CC(=O)NCc1ccc(Cl)cc1)CC(=O)NC1(C#N)CCCC1
cell number change: 10.9%
AC50 [1]: 29.1 µM [rising, single point]

NC(=O)COC(=O)CC1CC2CCC1C2 (stereo unspecified)
cell number change: 14.1%

CCC(C)(C)NC(=O)CN(C(=O)CCC(=O)Nc1nccs1)c1ccc2c(c1)OCO2
cell number change: 23%
AC50 [2]: 1.84 µM [rising, full curve, poor fit]

COc1ccc(-c2cc(C(=O)N(C)CC(=O)Nc3ccccc3Cl)c3ccccc3n2)cc1OC
cell number change: -12.6%
AC50 [1]: 1.46 µM [rising, partial curve]
